Source: PubChem BioAssay AID540256 (National Center for Advancing Translational Sciences (NCATS), 2011)
In all, about 300,000 compounds went through this assay and about 3,700 (1.2%) were called active. The inconclusive results got no clear call from the source; some entries with a clear call stand among them for comparison. The call rests on the fitted dose curve; tested in HEK293 cells. Potencies beside an inconclusive call are fits to weak or partial responses and may not hold up.

experiment: qHTS for Inhibitors of binding or entry into cells for Lassa Virus; settings: Lassa virus pseudotype entry inhibition, cell reporter; series mostly up to 37.9 µM; further: nearly all actives have a fitted effect of over 50% in size
Potency means the concentration at half of the fitted maximal effect.

| SMILES | Potency |
| --- | --- |
| COc1ccc2nc(NC(=O)c3nc(S(=O)(=O)Cc4ccc(C)cc4)ncc3Cl)sc2c1 | inconclusive: 5.62 µM [inhibitor, full curve, poor fit] |
| C/C(=N/NC(=O)CNc1ccc(Cl)cc1C)c1ccc(C)cc1 | inconclusive: 1.41 µM [inhibitor, partial curve, poor fit] |
| Cc1cc(/C=C2/NC(=O)NC2=O)c(C)n1-c1sc2c(c1C#N)CCCC2 | active: 4.47 µM |
| COc1ccc(-c2c[n+](CC(=O)N3c4ccccc4Sc4ccccc43)c3n2CCC3)cc1 | inactive |
| O=C(Nc1ccc(NC(=O)c2cccs2)cn1)c1ccco1 | active: 3.98 µM |
| COc1ccc(Cl)cc1NC(=O)c1noc2c1CCc1ccccc1-2 | inconclusive: 0.501 µM [inhibitor, full curve, poor fit] |
| CN(C)c1ccc(C=NCCC2(O)CCOC(C)(C)C2)cc1 (stereo not drawn) | inconclusive: 6.31 µM [inhibitor, full curve, poor fit] |
| Cc1cc(C)c(S(=O)(=O)c2c(C)cccc2C)c(OCC(C)C)n1 | inactive |
| COc1cccc(CNC(=O)Cn2c(=O)nc(-c3ccccc3F)c3cc(Cl)ccc32)c1 | inconclusive: 35.5 µM [inhibitor, single point] |
| CCC(=O)Nc1cccc(NC(=S)NC(=O)c2ccccc2)c1 | inconclusive: 11.2 µM [activator, single point] |
| CCCCCn1c(CN(C)Cc2ccccc2)nc2c1c(=O)n(C)c(=O)n2C | inconclusive: 23.1 µM [inhibitor, single point] |
| Cc1ccc(NC(=S)NC(=O)c2ccc(F)cc2)cc1S(=O)(=O)Nc1cccc(Cl)c1 | inconclusive: 1.26 µM [inhibitor, single point] |
| COc1ccc2[nH]c(=O)c(CN(CCN3CCCC3)C(=O)Nc3ccccc3Cl)cc2c1 | inactive |
| CC(NC(=O)Nc1nnc(C(F)(F)F)s1)(C(F)(F)F)C(F)(F)F | active: 3.55 µM |
| CC(C)CC1NC(=O)N(CC(=O)NC2CCCc3ccccc32)C1=O (stereo not drawn) | inconclusive: 10 µM [activator, partial curve, poor fit] |
| Cc1ccc(N=N/C(=C\O)C(=O)c2ccncc2)cc1 | inconclusive: 17.8 µM [inhibitor, single point] |
| CCCCN(CC)C(=O)CSc1nc2ccccc2c(=O)n1Cc1ccco1 | inconclusive: 20 µM [inhibitor, single point] |
| CCOC(=O)C1(CCOc2ccccc2)CCN(Cc2cnc(SC)nc2)CC1 | inconclusive: 11.2 µM [inhibitor, partial curve, poor fit] |
| COc1cc(-c2nc(-c3ccccc3)c(-c3ccc(Br)cc3)[nH]2)cc(OC)c1O | inconclusive: 14.1 µM [inhibitor, single point] |
| Cc1ccc(/C=C/c2onc(C)c2S(=O)(=O)N2CCC(C(=O)N3CCN(c4cc(C)ccc4C)CC3)CC2)cc1 | inconclusive: 35.5 µM [inhibitor, single point] |
| Fc1cccc(F)c1/C=C/c1ccc2ccccc2n1 | inconclusive: 10 µM [inhibitor, single point] |
| COc1ccccc1NC(=O)Nc1nc(CC(=O)NC2CCCC2)cs1 | inactive |

Molecules above with a halogen:

| SMILES | Potency |
| --- | --- |
| COc1ccc2nc(NC(=O)c3nc(S(=O)(=O)Cc4ccc(C)cc4)ncc3Cl)sc2c1 | inconclusive: 5.62 µM [inhibitor, full curve, poor fit] |
| C/C(=N/NC(=O)CNc1ccc(Cl)cc1C)c1ccc(C)cc1 | inconclusive: 1.41 µM [inhibitor, partial curve, poor fit] |
| COc1ccc(Cl)cc1NC(=O)c1noc2c1CCc1ccccc1-2 | inconclusive: 0.501 µM [inhibitor, full curve, poor fit] |
| COc1cccc(CNC(=O)Cn2c(=O)nc(-c3ccccc3F)c3cc(Cl)ccc32)c1 | inconclusive: 35.5 µM [inhibitor, single point] |
| Cc1ccc(NC(=S)NC(=O)c2ccc(F)cc2)cc1S(=O)(=O)Nc1cccc(Cl)c1 | inconclusive: 1.26 µM [inhibitor, single point] |
| COc1ccc2[nH]c(=O)c(CN(CCN3CCCC3)C(=O)Nc3ccccc3Cl)cc2c1 | inactive |
| CC(NC(=O)Nc1nnc(C(F)(F)F)s1)(C(F)(F)F)C(F)(F)F | active: 3.55 µM |
| COc1cc(-c2nc(-c3ccccc3)c(-c3ccc(Br)cc3)[nH]2)cc(OC)c1O | inconclusive: 14.1 µM [inhibitor, single point] |
| Fc1cccc(F)c1/C=C/c1ccc2ccccc2n1 | inconclusive: 10 µM [inhibitor, single point] |

The list goes on.

| SMILES | Potency |
| --- | --- |
| S=C(NCCc1ccccc1)NCC(c1ccco1)N1CCCCC1 (stereo not drawn) | inconclusive: 25.1 µM [inhibitor, single point] |
| COc1ccccc1NC(=O)C(=O)Nc1ccc2c(c1)N(C(=O)C1CC1)CCC2 | inconclusive: 2.82 µM [inhibitor, single point] |
| NNC(=O)c1cccc(COc2ccccc2Br)c1 | inconclusive: 35.5 µM [inhibitor, single point] |
| COc1cc2c(cc1OC)C(COc1ccccc1OC)N(C(=O)c1ccc(S(=O)(=O)N(C)C)cc1)CC2 (stereo not drawn) | inconclusive: 20 µM [inhibitor, partial curve, poor fit] |
| C=CCN(CC=C)CCOc1ccc(C)cc1[N+](=O)[O-] | inconclusive: 5.17 µM [activator, full curve, poor fit] |
| Cc1ccc(NC(=O)CS(=O)CC(=O)N(CC(=O)NC(C)(C)C)c2cccc(C)c2C)cc1 (stereo not drawn) | inactive |
| Cc1cc(C)c(S(=O)(=O)Nc2cc(C)on2)c(C)c1 | inconclusive: 22.4 µM [activator, single point] |
| C=C1CC2(OC1=O)c1ccccc1CCc1ccccc12 | active: 20 µM |
| COc1ccccc1Oc1ccc(N/C=C/C(=O)c2ccco2)cc1 | inconclusive: 3.16 µM [activator, partial curve, poor fit] |
| CC(=O)c1ccc(Nc2cc(C)nc3ncnn23)cc1 | inactive |
| CCn1c(SCc2ccccc2)nc2c(c1=O)SCC2 | inconclusive: 14.1 µM [inhibitor, partial curve, poor fit] |
| CCCCC(OC(=O)c1ccco1)C(=O)NCc1ccc(C)cc1 (stereo not drawn) | inactive |
| COc1cccc(OCC(O)CN2CCN(CCN3C(=O)c4cccc5cccc(c45)C3=O)CC2)c1 (stereo not drawn) | inconclusive: 17.8 µM [inhibitor, partial curve, poor fit] |
| O=C(NC1C=CS(=O)(=O)C1)c1sc2ccccc2c1Cl (stereo not drawn) | inconclusive: 20.6 µM [inhibitor, partial curve] |
| O=[N+]([O-])c1c(Nc2cccc(O)c2)cc(Cl)c2nonc12 | inconclusive: 22.4 µM [inhibitor, single point] |
| Cc1ccc(C)c(NC(=O)CCCCCCCCCCC2COCCO2)c1 (stereo not drawn) | inactive |
| COc1ccc(OCc2cc(C(=O)N3CCOCC3)no2)c(Cl)c1 | inactive |
| CN(C)c1ccc(NC(=O)c2ccc([N+](=O)[O-])cc2Cl)cc1 | inconclusive: 5.17 µM [activator, single point] |
| OCC1OC(n2cnc3c(NCc4ccco4)ncnc32)C(O)C1O (stereo not drawn) | active: 4.47 µM |
| CCc1ccc(OC(C)C(=O)N(Cc2ccccc2)C2CCS(=O)(=O)C2)cc1 (stereo not drawn) | inconclusive: 11.2 µM [inhibitor, partial curve, poor fit] |
| COc1ccc(NC(=O)Cc2ccc(C)cc2)c([N+](=O)[O-])c1 | inconclusive: 14.6 µM [inhibitor, partial curve, poor fit] |
